Measurements reported in PubChem BioAssay AID652259 (Drosophila RNAi Screening Center, 2013).
Screen: 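Knock-downs that push a Wingless-driven reporter up or down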 (primary screen). Cell system: Drosophila clone 8 imaginal disc epithelial cells. Knock-down reagent: long dsRNA against Drosophila genes. Treatment: pathway stimulated by co-transfected Wingless expression plasmid. Read-out: 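Firefly luciferase from a tcf-site Wingless reporter, measured alongside co-transfected Renilla luciferase that tracks transfection; pathway stimulated by a Wingless plasmid; the firefly-to-Renilla ratio is not deposited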. Reading the numbers: firefly reporter light: higher = more Wg reporter light, before normalisation; Renilla control light: higher = more transfected or surviving cells. Call rule: 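a knock-down is a candidate when at least two out of four statistical tests show it departing from its plate mean; one test alone signals a weak candidate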. Calls: active = candidate regulator (raises or lowers reporter); inactive = not a candidate.
The screen tested about 22,000 reagents; below is a random part of those that have a named target and a result. In the full data, 233 (1.1%) were called active. 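Light values are raw, unnormalised plate reads; the ratio scores behind the reporter calls were not deposited.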 The numbers tell different reagents against one gene apart. Names joined by + are all predicted targets of the reagent. Reagent sequences are not shown. Not given: the amount of reagent, the time to read-out, the dose of the treatment.

| gene | reagent no. | reporter change call, replicate 1 | firefly reporter light, replicate 1 | firefly reporter light, replicate 2 | Renilla control light, replicate 1 | Renilla control light, replicate 2 | activity call |
| --- | --- | --- | --- | --- | --- | --- | --- |
| Mdr49 (GeneID 36428) | 1 | Wg reporter activity lowered | 12427 | – | 4944 | – | inactive |
| Fbl6 (GeneID 36201) | 1 | – | 12464 | – | 2208 | – | inactive |
| Csl4 (GeneID 34548) | 1 | – | 4720 | 9988 | 1376 | 5265 | inactive |
| Csl4 (GeneID 34548) | 2 | – | 3.95e5 | 4.13e5 | 1.92e5 | 1.64e5 | inactive |
| Ing5 (GeneID 34752) | 1 | – | 16468 | – | 3984 | – | inactive |
| CG3434 (GeneID 39098) | 1 | – | 3651 | – | 1921 | – | inactive |
| CG43219 (GeneID 12798437) | 1 | – | 4553 | – | 1894 | – | inactive |
| CG4891 (GeneID 34948) | 1 | – | 7491 | – | 2427 | – | inactive |
| CG33284 (GeneID 2768989) | 1 | – | 5.71e5 | 6.23e5 | 2.51e5 | 2.74e5 | inactive |
| Adat1 (GeneID 34787) | 1 | – | 1973 | 7590 | 999 | 2836 | inactive |
| Urod (GeneID 35986) | 1 | – | 3628 | 7060 | 997 | 3633 | inactive |
| sinah (GeneID 39885) | 1 | – | 12868 | – | 5520 | – | inactive |
| sinah (GeneID 39885) | 2 | – | 5.82e5 | 4.79e5 | 2.23e5 | 1.92e5 | inactive |
| Srx (GeneID 32768) | 1 | – | 21149 | – | 9885 | – | inactive |
| CG14464 (GeneID 3355132) | 1 | – | 4736 | – | 2320 | – | inactive |
| MFS15 (GeneID 37168) | 1 | – | 7189 | – | 2225 | – | inactive |
| CG31139 (GeneID 42698) | 1 | – | 7.67e5 | 7.60e5 | 3.07e5 | 3.04e5 | inactive |
| CG43755 (GeneID 319026) | 1 | – | 25232 | – | 14304 | – | inactive |
| CG43260 (retired record) (GeneID 12798173) | 1 | – | 4240 | – | 1572 | – | inactive |
| ppk20 (GeneID 43486) | 1 | – | 5602 | – | 2388 | – | inactive |
| Lnpk (GeneID 35842) | 1 | – | 13989 | – | 3968 | – | inactive |
| Gr64f (GeneID 117477) | 1 | – | 3786 | – | 2487 | – | inactive |
| spdo (GeneID 318559) | 1 | – | 3107 | – | 1050 | – | inactive |
| CG2839 (GeneID 33244) | 1 | – | 4707 | 7137 | 1592 | 3233 | inactive |
| atos (GeneID 36243) | 1 | – | 6085 | – | 2218 | – | inactive |
| CG10799 (GeneID 36472) | 1 | – | 3754 | – | 1985 | – | inactive |
| cmb (GeneID 39513) | 1 | – | 6428 | – | 2694 | – | inactive |
| Cul1 (GeneID 35742) | 1 | – | 11212 | – | 2413 | – | inactive |
| Parp1 (GeneID 3355109) | 1 | – | 16866 | – | 12673 | – | inactive |
| Parp1 (GeneID 3355109) | 2 | – | 4707 | – | 2563 | – | inactive |
| Parp1 (GeneID 3355109) | 3 | – | 4795 | – | 2434 | – | inactive |
| Blos4 (GeneID 39219) | 1 | – | 10141 | – | 4470 | – | inactive |
| CG9555 (GeneID 34223) | 1 | – | 2148 | 5585 | 658 | 2515 | inactive |
| GstE13 (GeneID 35928) | 1 | – | 6763 | – | 2632 | – | inactive |
| CG8298 (GeneID 36282) | 1 | – | 9229 | – | 2747 | – | inactive |
| Dop1R2 (GeneID 43484) | 1 | – | 4659 | – | 1947 | – | inactive |
| Dop1R2 (GeneID 43484) | 2 | – | 5792 | – | 2251 | – | inactive |
| CG34265 (GeneID 5740186) | 1 | – | 3564 | – | 1772 | – | inactive |
| CG1971 (GeneID 43755) | 1 | – | 1744 | 3622 | 624 | 1216 | inactive |
| Tsp (GeneID 33941) | 1 | – | 10387 | – | 4147 | – | inactive |
| Tsp (GeneID 33941) | 2 | – | 3008 | 6629 | 1200 | 2653 | inactive |
| Ubc2 (GeneID 34487) | 1 | – | 25349 | – | 11024 | – | inactive |
| Ubc2 (GeneID 34487) | 2 | – | 2336 | 4215 | 1211 | 2571 | inactive |
| ems (GeneID 41697) | 1 | – | 20576 | – | 4712 | – | inactive |
| CG15894 (GeneID 31574) | 1 | – | 23792 | – | 10086 | – | inactive |
| CG15894 (GeneID 31574) | 2 | – | 32514 | – | 6778 | – | inactive |
| Sec13 (GeneID 44437) | 1 | – | 3164 | 9092 | 1277 | 1798 | inactive |
| CG15546 (GeneID 43659) | 1 | – | 8980 | – | 3620 | – | inactive |
| CG15546 (GeneID 43659) | 2 | – | 4.59e5 | 4.77e5 | 1.90e5 | 2.19e5 | inactive |
| NijA (GeneID 39215) | 1 | – | 9187 | – | 2688 | – | inactive |
| Jon66Ci (GeneID 38952) | 1 | – | 753 | 6464 | 584 | 2912 | inactive |
| CG32182 (GeneID 317898) | 1 | – | 3858 | – | 1297 | – | inactive |
| nanos (GeneID 42297) | 1 | – | 18588 | – | 2650 | – | inactive |
| CG9760 (GeneID 39388) | 1 | – | 7369 | – | 2347 | – | inactive |
| wds (GeneID 53428) | 1 | – | 15521 | – | 6802 | – | inactive |
| Tre1 (GeneID 140439) | 1 | – | 18202 | – | 8112 | – | inactive |
| CG13138 (GeneID 34381) | 1 | – | 3066 | 9610 | 1085 | 4281 | inactive |
| emei (GeneID 39250) | 1 | – | 11559 | – | 3949 | – | inactive |
| emei (GeneID 39250) | 2 | – | 5.51e5 | 5.26e5 | 1.91e5 | 1.60e5 | inactive |
| CG12128 + CG1407 | 1 | – | 10504 | – | 4210 | – | inactive |
| Hph (GeneID 40633) | 1 | – | 7408 | – | 3228 | – | inactive |
| Hph (GeneID 40633) | 2 | – | 10801 | – | 1797 | – | inactive |
| Hph (GeneID 40633) | 3 | – | 7.49e5 | 7.78e5 | 3.19e5 | 4.20e5 | inactive |
| Lrp4 (GeneID 32552) | 1 | – | 1976 | 8770 | 564 | 1702 | inactive |
| Frq1 (GeneID 32797) | 1 | – | 22280 | – | 9748 | – | inactive |
| CG3927 (GeneID 37576) | 1 | – | 2786 | 9906 | 664 | 2396 | inactive |
| CG3927 (GeneID 37576) | 2 | – | 5.13e5 | 5.32e5 | 2.33e5 | 2.74e5 | inactive |
| CG15818 (GeneID 34019) | 1 | – | 14705 | – | 6224 | – | inactive |
| dlp (GeneID 39596) | 1 | Wg reporter activity raised | 5124 | – | 589 | – | active |
| dlp (GeneID 39596) | 2 | Wg reporter activity raised | 11012 | – | 882 | – | active |
| GstD3 (GeneID 48336) | 1 | – | 8664 | – | 3474 | – | inactive |
| Hgsnat (GeneID 31423) | 1 | – | 2584 | 7803 | 1034 | 1228 | inactive |
| PolG1 (GeneID 34792) | 1 | – | 3458 | 9384 | 1540 | 4426 | inactive |
